The target in the experiment is cyclic GMP-AMP synthase (UniProt Q8N884). In words: co-IP; HEK293T cells transfected 48 h with HA-Aurora A and Flag-cGAS; lysis in 20 mM Tris-HCl pH 7.5, 150 mM NaCl, 1 mM EDTA, 1% Triton X-100; anti-Flag sepharose beads, 3 h at 4°C; Western blotting. On the technique in general: In western blotting, separated proteins are transferred to a membrane and probed.

Chains of the proteins cited; added tags and fusions are not shown.
UniProt Q8N884: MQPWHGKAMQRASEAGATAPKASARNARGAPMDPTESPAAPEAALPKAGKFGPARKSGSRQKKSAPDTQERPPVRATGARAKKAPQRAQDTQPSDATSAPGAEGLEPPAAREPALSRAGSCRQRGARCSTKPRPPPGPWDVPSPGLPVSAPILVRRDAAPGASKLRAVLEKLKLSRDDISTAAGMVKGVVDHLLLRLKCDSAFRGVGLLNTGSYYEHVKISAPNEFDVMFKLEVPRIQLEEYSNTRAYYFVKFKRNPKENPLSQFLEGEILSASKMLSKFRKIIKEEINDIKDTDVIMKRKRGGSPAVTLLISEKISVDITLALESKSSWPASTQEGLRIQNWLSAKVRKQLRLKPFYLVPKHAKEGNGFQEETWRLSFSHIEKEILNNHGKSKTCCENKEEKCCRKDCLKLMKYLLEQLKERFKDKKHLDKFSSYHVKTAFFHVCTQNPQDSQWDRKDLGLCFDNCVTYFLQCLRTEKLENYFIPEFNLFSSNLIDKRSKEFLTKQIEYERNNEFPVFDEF

These are yes or no findings as the source states them, for the method shown. In cells and extracts the contact can be indirect. Some binding calls cover weakened binding; strength is not graded here.

B1: Aurora A (enzyme, UniProt O14965 1-403)
chain: MDRSKENCISGPVKATAPVGGPKRVLVTQQFPCQNPLPVNSGQAQRVLCPSNSSQRIPLQAQKLVSSHKPVQNQKQKQLQATSVPHPVSRPLNNTQKSKQPLPSAPENNPEEELASKQKNEESKKRQWALEDFEIGRPLGKGKFGNVYLAREKQSKFILALKVLFKAQLEKAGVEHQLRREVEIQSHLRHPNILRLYGYFHDATRVYLILEYAPLGTVYRELQKLSKFDEQRTATYITELANALSYCHSKRVIHRDIKPENLLLGSAGELKIADFGWSVHAPSSRRTTLCGTLDYLPPEMIEGRMHDEKVDLWSLGVLCYEFLVGKPPFEANTYQETYKRISRVEFTFPDFVTEGARDLISRLLKHNPSQRPMLREVLEHPWITANSSKPSNCQNKESASKQS
Consider B1, for which the binding result was “binds”.

Source of the values: publication PMC10145933.
